Results: the supplement of paper PMC12823440, “Inhibitors supercharge kinase turnover through native proteolytic circuits” (Nature, 2025)
This is one part of the list. The calls rarely recur for the same compound in another form.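 In K562 cells expressing nanoluciferase-fused kinases, luminescence was recorded at 4 h intervals between 2 and 18 h, normalized as percent of control with DMSO at 100% and a positive control at 0%. A significant (2 sigma) signal drop marks a time point as decreased. The authors' rule for a hit is not shown and takes in more than the number of time points.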

Amino acid sequences for entries named in this document (tags omitted). A change or cut given only in a name is not applied to a line headed by its entry.
UniProt P28482, whole entry: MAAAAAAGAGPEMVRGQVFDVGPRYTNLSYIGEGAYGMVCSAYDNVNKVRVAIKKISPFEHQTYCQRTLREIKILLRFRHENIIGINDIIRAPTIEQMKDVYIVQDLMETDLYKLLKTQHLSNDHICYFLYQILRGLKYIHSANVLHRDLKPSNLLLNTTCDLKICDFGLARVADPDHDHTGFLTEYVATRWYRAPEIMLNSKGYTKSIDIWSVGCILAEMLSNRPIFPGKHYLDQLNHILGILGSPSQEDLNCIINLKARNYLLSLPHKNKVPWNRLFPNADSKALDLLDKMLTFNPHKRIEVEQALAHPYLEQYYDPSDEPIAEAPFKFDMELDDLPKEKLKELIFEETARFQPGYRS
UniProt P31152, whole entry: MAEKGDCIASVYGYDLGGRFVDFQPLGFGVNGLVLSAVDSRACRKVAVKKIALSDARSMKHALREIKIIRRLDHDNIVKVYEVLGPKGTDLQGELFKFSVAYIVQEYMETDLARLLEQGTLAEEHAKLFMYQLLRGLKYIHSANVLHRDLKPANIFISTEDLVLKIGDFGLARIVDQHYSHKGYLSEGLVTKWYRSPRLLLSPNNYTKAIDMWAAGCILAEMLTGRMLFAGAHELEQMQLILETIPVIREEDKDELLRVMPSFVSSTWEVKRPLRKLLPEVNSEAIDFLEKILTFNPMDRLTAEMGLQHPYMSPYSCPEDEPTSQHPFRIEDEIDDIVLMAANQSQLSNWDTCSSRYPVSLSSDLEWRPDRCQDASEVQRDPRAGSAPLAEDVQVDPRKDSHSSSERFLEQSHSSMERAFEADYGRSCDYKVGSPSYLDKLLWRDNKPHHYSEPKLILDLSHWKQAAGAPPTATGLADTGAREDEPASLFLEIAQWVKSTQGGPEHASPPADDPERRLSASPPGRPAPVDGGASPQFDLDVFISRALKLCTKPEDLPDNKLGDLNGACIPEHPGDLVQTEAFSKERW
UniProt P49137, whole entry, looked up: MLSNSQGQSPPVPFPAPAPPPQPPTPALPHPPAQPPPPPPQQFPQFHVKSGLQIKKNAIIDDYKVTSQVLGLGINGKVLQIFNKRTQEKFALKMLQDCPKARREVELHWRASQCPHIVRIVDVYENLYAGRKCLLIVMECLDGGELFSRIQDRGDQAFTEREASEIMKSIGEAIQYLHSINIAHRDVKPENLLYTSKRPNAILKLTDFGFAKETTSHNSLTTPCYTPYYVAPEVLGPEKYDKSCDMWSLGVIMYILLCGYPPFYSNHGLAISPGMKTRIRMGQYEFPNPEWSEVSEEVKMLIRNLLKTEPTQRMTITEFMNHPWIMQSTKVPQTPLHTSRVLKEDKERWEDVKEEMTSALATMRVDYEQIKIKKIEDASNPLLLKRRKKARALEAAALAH
UniProt Q9BUB5: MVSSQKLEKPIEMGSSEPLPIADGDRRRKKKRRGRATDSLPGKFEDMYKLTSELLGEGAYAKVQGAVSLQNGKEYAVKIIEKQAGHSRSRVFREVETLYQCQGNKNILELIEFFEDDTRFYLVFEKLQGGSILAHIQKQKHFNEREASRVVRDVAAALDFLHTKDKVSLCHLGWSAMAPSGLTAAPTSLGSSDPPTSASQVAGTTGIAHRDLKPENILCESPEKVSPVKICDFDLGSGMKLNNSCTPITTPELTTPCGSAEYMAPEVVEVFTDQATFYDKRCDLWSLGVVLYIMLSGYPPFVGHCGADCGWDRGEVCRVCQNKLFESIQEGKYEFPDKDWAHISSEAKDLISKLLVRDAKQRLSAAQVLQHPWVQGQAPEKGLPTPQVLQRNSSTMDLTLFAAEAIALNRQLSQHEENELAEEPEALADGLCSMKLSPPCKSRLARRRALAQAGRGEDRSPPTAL
UniProt Q16620, whole entry, looked up: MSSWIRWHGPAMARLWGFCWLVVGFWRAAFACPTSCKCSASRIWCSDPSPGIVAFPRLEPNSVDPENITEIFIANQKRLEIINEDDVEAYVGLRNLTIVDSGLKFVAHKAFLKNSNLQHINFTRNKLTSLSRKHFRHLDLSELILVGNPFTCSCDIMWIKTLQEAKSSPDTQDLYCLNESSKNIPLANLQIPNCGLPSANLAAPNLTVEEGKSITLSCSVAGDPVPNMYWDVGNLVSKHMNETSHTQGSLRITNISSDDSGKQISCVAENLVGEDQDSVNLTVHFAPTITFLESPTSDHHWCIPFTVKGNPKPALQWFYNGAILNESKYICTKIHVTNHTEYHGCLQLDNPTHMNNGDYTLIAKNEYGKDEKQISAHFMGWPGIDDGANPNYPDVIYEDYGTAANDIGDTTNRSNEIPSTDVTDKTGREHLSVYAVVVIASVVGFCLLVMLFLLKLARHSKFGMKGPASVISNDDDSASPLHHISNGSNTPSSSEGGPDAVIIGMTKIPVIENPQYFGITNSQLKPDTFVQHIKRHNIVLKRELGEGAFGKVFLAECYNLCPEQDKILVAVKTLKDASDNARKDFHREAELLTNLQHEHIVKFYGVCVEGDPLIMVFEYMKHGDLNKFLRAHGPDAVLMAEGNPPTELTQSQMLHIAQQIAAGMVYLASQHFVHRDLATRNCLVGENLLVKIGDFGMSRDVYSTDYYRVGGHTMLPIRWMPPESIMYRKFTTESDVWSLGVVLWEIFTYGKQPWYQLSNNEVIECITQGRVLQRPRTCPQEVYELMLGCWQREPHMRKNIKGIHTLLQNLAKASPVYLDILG
UniProt Q16288, whole entry, looked up: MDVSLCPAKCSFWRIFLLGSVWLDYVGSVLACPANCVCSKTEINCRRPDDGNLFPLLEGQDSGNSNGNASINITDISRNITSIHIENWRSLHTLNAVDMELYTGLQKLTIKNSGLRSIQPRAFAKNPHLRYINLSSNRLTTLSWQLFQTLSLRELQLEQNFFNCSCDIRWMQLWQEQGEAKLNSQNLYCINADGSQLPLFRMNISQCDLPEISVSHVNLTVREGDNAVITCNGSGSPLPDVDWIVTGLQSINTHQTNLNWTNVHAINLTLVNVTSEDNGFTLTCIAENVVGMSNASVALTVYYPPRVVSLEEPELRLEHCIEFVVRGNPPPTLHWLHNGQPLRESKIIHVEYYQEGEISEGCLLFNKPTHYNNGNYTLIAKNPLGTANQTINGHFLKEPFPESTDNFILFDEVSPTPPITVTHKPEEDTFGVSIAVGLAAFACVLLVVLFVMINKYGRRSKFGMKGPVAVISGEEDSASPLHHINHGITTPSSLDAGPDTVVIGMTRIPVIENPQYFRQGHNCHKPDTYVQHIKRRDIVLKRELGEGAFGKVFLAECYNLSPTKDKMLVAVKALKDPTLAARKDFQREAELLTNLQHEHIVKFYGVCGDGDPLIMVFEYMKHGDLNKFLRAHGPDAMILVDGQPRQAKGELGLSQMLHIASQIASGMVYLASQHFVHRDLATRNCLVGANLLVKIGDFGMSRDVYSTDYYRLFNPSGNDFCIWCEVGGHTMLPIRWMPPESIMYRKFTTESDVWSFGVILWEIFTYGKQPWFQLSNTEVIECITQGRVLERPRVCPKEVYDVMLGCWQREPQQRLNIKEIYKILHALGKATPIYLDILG
UniProt O96013: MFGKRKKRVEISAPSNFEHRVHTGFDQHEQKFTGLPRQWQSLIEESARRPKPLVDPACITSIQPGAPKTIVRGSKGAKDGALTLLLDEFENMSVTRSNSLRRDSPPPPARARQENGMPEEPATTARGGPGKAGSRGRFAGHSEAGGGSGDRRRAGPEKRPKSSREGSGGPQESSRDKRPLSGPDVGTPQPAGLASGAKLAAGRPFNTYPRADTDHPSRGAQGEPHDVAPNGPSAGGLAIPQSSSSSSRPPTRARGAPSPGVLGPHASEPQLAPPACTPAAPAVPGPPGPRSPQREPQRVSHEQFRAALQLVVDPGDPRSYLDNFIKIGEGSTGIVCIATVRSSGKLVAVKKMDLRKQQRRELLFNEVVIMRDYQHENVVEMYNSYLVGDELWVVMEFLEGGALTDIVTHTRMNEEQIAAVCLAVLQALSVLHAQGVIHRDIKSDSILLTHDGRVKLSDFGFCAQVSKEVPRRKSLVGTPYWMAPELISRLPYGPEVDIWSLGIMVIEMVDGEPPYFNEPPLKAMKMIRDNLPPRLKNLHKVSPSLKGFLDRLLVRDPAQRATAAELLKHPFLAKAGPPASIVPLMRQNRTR
UniProt Q96KB5: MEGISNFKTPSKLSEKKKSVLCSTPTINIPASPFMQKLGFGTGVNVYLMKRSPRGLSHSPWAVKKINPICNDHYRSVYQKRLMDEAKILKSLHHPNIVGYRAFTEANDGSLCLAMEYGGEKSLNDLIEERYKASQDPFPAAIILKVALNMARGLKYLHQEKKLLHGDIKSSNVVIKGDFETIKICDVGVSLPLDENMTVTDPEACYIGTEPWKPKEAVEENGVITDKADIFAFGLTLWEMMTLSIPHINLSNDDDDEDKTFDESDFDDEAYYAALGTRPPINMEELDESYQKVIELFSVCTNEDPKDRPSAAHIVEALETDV
UniProt P09619, whole entry: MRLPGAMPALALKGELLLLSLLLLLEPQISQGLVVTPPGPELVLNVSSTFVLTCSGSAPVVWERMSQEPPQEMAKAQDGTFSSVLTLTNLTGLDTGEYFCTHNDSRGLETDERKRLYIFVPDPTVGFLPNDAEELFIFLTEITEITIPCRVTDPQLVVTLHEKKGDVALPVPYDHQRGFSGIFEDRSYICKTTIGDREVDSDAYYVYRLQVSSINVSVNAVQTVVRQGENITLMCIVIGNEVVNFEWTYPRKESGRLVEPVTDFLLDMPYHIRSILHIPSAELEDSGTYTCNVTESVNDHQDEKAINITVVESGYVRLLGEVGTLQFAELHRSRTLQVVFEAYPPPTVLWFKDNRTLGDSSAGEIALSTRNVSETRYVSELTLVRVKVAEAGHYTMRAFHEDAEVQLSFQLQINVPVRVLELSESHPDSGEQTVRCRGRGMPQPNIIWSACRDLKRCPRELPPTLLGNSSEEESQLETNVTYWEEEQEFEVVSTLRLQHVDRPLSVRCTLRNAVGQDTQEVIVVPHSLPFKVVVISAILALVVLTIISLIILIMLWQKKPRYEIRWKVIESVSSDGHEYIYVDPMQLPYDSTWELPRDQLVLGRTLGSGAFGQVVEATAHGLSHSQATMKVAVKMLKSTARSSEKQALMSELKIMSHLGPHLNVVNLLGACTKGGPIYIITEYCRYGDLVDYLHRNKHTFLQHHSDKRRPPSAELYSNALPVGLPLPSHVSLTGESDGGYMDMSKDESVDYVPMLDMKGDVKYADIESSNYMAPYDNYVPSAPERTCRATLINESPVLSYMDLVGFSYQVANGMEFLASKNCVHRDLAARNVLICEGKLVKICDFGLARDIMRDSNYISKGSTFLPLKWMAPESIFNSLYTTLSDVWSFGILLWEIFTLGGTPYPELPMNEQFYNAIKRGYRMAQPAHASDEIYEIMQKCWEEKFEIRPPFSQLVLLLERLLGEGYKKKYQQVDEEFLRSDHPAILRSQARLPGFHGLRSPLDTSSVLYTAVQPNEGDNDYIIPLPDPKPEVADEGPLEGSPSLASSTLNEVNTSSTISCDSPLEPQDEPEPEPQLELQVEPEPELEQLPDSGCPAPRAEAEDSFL
UniProt Q15118, whole entry, looked up: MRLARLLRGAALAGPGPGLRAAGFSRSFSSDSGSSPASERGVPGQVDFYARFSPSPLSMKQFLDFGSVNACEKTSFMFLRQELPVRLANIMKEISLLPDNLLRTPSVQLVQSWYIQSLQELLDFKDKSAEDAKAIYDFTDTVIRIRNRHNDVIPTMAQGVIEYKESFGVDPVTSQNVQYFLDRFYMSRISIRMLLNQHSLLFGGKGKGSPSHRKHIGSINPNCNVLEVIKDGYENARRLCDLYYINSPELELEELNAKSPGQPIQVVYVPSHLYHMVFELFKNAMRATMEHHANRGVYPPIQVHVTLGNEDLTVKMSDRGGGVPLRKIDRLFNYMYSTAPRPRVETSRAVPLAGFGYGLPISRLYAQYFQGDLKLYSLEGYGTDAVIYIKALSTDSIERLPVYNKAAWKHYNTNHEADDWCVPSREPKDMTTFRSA

Columns and labels:
Assay in all cases: kinase-Nluc reporter destabilization hit call (1 = scored as downregulated) (binary); higher = compound decreases kinase abundance
Conditions in all cases: K562; 2-18 h
MAPK1 = MAPK1 (UniProt P28482)
MAPK4 = MAPK4 (UniProt P31152)
MAPKAPK2 = MAPKAPK2 (UniProt P49137)
MKNK1 = MKNK1 (UniProt Q9BUB5)
NTRK2 = NTRK2 (UniProt Q16620)
NTRK3 = NTRK3 (UniProt Q16288)
PAK4 = PAK4 (UniProt O96013)
PBK = PBK (UniProt Q96KB5)
PDGFRB = PDGFRB (UniProt P09619)
PDK1 = PDK1 (UniProt Q15118)

Measured: kinase-Nluc reporter destabilization hit call

Cn1ncc(NC(=O)c2nc(-c3c(F)cccc3F)sc2N)c1N1CC[C@@H](N)[C@H](F)CC1 (10 µM)
inactive: MAPK1 = 0 | MAPK4 = 0 | MAPKAPK2 = 0 | MKNK1 = 0 | NTRK2 = 0 | NTRK3 = 0 | PAK4 = 0 | PBK 0 | PDGFRB 0 | PDK1 = 0

Cc1ccc(C(=O)NC2CC2)cc1-n1ncc(C(=O)c2cccc(C#N)c2)c1N [Acumapimod] (10 µM)
inactive: MAPK1 = 0 | MAPK4 = 0 | MAPKAPK2 = 0 | MKNK1 = 0 | NTRK2 = 0 | NTRK3 = 0 | PAK4 = 0 | PBK 0 | PDGFRB 0 | PDK1 = 0

Cc1cc(CSc2ccccc2C(=O)NCCNc2ccc(C(F)(F)F)cc2[N+](=O)[O-])on1 (10 µM)
inactive: MAPK1 = 0 | MAPK4 = 0 | MAPKAPK2 = 0 | MKNK1 = 0 | NTRK2 = 0 | NTRK3 = 0 | PAK4 = 0 | PBK 0 | PDGFRB 0 | PDK1 = 0

COc1cc2ncnc(Nc3cccc(I)c3)c2cc1OC (2.5 µM)
inactive: MAPK1 = 0 | MAPK4 = 0 | MAPKAPK2 = 0 | MKNK1 = 0 | NTRK2 = 0 | NTRK3 = 0 | PAK4 = 0 | PBK 0 | PDGFRB 0 | PDK1 = 0

C=CC(=O)N1CCC[C@@H](n2nc(-c3ccc(Oc4ccccc4)cc3)c3c(N)n[nH]c(=O)c32)C1 [BTK inhibitor 17] (10 µM)
inactive: MAPK1 = 0 | MAPK4 = 0 | MAPKAPK2 = 0 | MKNK1 = 0 | NTRK2 = 0 | NTRK3 = 0 | PAK4 = 0 | PBK 0 | PDGFRB 0 | PDK1 = 0

Cc1cc(C(=O)Nc2nc3cccc(Cl)c3n2[C@@H]2CCCCN(C(=O)/C=C/CN(C)C)C2)ccn1 [Nazartinib] (10 µM)
inactive: MAPK1 = 0 | MAPK4 = 0 | MAPKAPK2 = 0 | MKNK1 = 0 | NTRK2 = 0 | NTRK3 = 0 | PAK4 = 0 | PBK 0 | PDGFRB 0 | PDK1 = 0

Cc1cc(Nc2cc(N3CCN(C)CC3)nc(Nc3ccc([N+](=O)[O-])cc3)n2)n[nH]1 (2.5 µM)
inactive: MAPK1 = 0 | MAPK4 = 0 | MAPKAPK2 = 0 | MKNK1 = 0 | NTRK2 = 0 | NTRK3 = 0 | PAK4 = 0 | PBK 0 | PDGFRB 0 | PDK1 = 0

Nc1ncc(C(=O)NC2CN(C(=O)C3CC3)C2)c2ccc(-c3cccc(F)c3)nc12 (2 µM)
inactive: MAPK1 = 0 | MAPK4 = 0 | MAPKAPK2 = 0 | MKNK1 = 0 | NTRK2 = 0 | NTRK3 = 0 | PAK4 = 0 | PBK 0 | PDGFRB 0 | PDK1 = 0

CO[C@H]1CC[C@H](N2C(=O)CNc3ncc(-c4ccc(C(C)(C)O)nc4)nc32)CC1 (2.5 µM)
inactive: MAPK1 = 0 | MAPK4 = 0 | MAPKAPK2 = 0 | MKNK1 = 0 | NTRK2 = 0 | NTRK3 = 0 | PAK4 = 0 | PBK 0 | PDGFRB 0 | PDK1 = 0

Cc1ccc(-n2nc(C(C)(C)C)cc2NC(=O)Nc2ccc(OCCN3CCOCC3)cc2)cc1 (10 µM)
inactive: MAPK1 = 0 | MAPK4 = 0 | MAPKAPK2 = 0 | MKNK1 = 0 | NTRK2 = 0 | NTRK3 = 0 | PAK4 = 0 | PBK 0 | PDGFRB 0 | PDK1 = 0

N#Cc1ccc(-c2cnc3ccc(-c4ccc(C(=O)N5CCOCC5)cc4)cn23)cc1 (10 µM)
inactive: MAPK1 = 0 | MAPK4 = 0 | MAPKAPK2 = 0 | MKNK1 = 0 | NTRK2 = 0 | NTRK3 = 0 | PAK4 = 0 | PBK 0 | PDGFRB 0 | PDK1 = 0

NCC1CCC(CNc2nc(NCc3ccccc3OC(F)(F)F)ncc2[N+](=O)[O-])CC1 (stereo not given) [PKC-theta inhibitor] (10 µM)
inactive: MAPK1 = 0 | MAPK4 = 0 | MAPKAPK2 = 0 | MKNK1 = 0 | NTRK2 = 0 | NTRK3 = 0 | PAK4 = 0 | PBK 0 | PDGFRB 0 | PDK1 = 0

CC(C)(C)Cc1[nH]nc2c1[C@@](C)(c1ccccc1)C1=C(CC(C)(C)CC1=O)N2 (10 µM)
inactive: MAPK1 = 0 | MAPK4 = 0 | MAPKAPK2 = 0 | MKNK1 = 0 | NTRK2 = 0 | NTRK3 = 0 | PAK4 = 0 | PBK 0 | PDGFRB 0 | PDK1 = 0

C=CC(=O)Nc1ccc(C(=O)Nc2[nH]nc3c2CN(C(=O)N[C@H](CN(C)C)c2ccccc2)C3(C)C)cc1 (10 µM)
inactive: MAPK1 = 0 | MAPK4 = 0 | MAPKAPK2 = 0 | MKNK1 = 0 | NTRK2 = 0 | NTRK3 = 0 | PAK4 = 0 | PBK 0 | PDGFRB 0 | PDK1 = 0

NC(=O)c1cnc(-c2ccc(C3(N)CCC3)cc2)c(-c2ccccc2)c1 (10 µM)
inactive: MAPK1 = 0 | MAPK4 = 0 | MAPKAPK2 = 0 | MKNK1 = 0 | NTRK2 = 0 | NTRK3 = 0 | PAK4 = 0 | PBK 0 | PDGFRB 0 | PDK1 = 0

COc1cc(F)ccc1-c1ncnc(Nc2cccc(C[S@](C)(=N)=O)c2)n1 [Atuveciclib] (2.5 µM)
inactive: MAPK1 = 0 | MAPK4 = 0 | MAPKAPK2 = 0 | MKNK1 = 0 | NTRK2 = 0 | NTRK3 = 0 | PAK4 = 0 | PBK 0 | PDGFRB 0 | PDK1 = 0

Cc1cc([C@@H](C)Nc2ccccc2C(=O)O)c2nc(N3CCOCC3)cc(=O)n2c1 (10 µM)
inactive: MAPK1 = 0 | MAPK4 = 0 | MAPKAPK2 = 0 | MKNK1 = 0 | NTRK2 = 0 | NTRK3 = 0 | PAK4 = 0 | PBK 0 | PDGFRB 0 | PDK1 = 0

COc1cc2c(cc1Nc1ncc(C(N)=O)c(Nc3c(F)cccc3C(F)(F)F)n1)CN(C)CC2 (2.5 µM)
inactive: MAPK1 = 0 | MAPK4 = 0 | MAPKAPK2 = 0 | MKNK1 = 0 | NTRK2 = 0 | NTRK3 = 0 | PAK4 = 0 | PBK 0 | PDGFRB 0 | PDK1 = 0

Cc1cnc(NC(=O)c2cc(Oc3cnc(C(=O)N(C)C)nc3)c3cc(C)oc3c2)cn1 (10 µM)
inactive: MAPK1 = 0 | MAPK4 = 0 | MAPKAPK2 = 0 | MKNK1 = 0 | NTRK2 = 0 | NTRK3 = 0 | PAK4 = 0 | PBK 0 | PDGFRB 0 | PDK1 = 0

Pulled one by one from above, 2 records:
C=CC(=O)Nc1ccc(C(=O)Nc2[nH]nc3c2CN(C(=O)N[C@H](CN(C)C)c2ccccc2)C3(C)C)cc1 (10 µM)
inactive: MAPK1 = 0 | MAPK4 = 0 | MAPKAPK2 = 0 | MKNK1 = 0 | NTRK2 = 0 | NTRK3 = 0 | PAK4 = 0 | PBK 0 | PDGFRB 0 | PDK1 = 0

NC(=O)c1cnc(-c2ccc(C3(N)CCC3)cc2)c(-c2ccccc2)c1 (10 µM)
inactive: MAPK1 = 0 | MAPK4 = 0 | MAPKAPK2 = 0 | MKNK1 = 0 | NTRK2 = 0 | NTRK3 = 0 | PAK4 = 0 | PBK 0 | PDGFRB 0 | PDK1 = 0
